Our source for the crude mass values is US8299030 (dated 2012).

A short description of this series: general procedure: Fmoc solid-phase peptide synthesis; Rink Amide AM resin; HBTU (HATU for PEG unit). The following applies: whole synthesis, scale 0.25 mmol.

As to “ClCH2CO-Lys-Cys(tBu)-Arg-Gly-Asp-Cys(tBu)-Phe-Cys-(PEG)n-NH2 where n=1”, the crude mass is listed as 322 mg.

As for “ClCH2CO-Lys-Cys(tBu)-Arg-Gly-Asp-Cys(tBu)-Phe-Cys-NH2”, the crude mass was 295 mg.
